According to doi:10.1101/2020.09.15.297002:
These are yes or no findings as the source states them, for the method shown. Binding seen in cells or lysates may run through a third protein. Some entries that bind do so weakly or less than the wild type. Tags and fused reporters may be left off the sequences shown. One block for each molecule: values may come before it.

Chains of the proteins cited; added tags and fusions are not shown.
UniProt P31751: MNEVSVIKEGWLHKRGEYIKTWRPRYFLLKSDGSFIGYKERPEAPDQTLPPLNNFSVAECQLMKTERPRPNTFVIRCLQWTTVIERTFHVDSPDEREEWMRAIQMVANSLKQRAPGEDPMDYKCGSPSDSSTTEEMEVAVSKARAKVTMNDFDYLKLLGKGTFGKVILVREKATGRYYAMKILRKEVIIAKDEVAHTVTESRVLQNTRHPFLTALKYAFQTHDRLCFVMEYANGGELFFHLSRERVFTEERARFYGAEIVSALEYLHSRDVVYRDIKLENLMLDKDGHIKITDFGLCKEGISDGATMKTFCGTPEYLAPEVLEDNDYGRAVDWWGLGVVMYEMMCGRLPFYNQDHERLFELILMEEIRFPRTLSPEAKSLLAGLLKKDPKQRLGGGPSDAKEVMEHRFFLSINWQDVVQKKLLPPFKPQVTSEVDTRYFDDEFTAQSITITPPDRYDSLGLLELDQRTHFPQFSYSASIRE
UniProt Q96SB4: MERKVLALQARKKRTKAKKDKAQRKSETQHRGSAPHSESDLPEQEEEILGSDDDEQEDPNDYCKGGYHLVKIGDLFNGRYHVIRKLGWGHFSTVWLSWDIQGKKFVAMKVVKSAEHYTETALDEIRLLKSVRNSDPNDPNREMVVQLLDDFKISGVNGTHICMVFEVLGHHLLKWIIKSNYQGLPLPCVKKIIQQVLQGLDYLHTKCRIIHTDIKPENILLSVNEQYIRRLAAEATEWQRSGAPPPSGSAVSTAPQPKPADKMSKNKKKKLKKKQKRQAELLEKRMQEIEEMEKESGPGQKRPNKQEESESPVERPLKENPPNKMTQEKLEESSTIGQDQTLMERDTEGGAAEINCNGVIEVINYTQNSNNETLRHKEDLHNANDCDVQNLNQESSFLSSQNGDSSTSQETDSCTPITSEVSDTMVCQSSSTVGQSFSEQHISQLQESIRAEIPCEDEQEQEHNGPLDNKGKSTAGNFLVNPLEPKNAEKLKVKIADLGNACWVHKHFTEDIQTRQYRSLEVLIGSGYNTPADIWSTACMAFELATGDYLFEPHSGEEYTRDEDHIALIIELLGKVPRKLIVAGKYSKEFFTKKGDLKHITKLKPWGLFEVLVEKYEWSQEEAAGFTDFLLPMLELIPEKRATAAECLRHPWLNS
UniProt P49759: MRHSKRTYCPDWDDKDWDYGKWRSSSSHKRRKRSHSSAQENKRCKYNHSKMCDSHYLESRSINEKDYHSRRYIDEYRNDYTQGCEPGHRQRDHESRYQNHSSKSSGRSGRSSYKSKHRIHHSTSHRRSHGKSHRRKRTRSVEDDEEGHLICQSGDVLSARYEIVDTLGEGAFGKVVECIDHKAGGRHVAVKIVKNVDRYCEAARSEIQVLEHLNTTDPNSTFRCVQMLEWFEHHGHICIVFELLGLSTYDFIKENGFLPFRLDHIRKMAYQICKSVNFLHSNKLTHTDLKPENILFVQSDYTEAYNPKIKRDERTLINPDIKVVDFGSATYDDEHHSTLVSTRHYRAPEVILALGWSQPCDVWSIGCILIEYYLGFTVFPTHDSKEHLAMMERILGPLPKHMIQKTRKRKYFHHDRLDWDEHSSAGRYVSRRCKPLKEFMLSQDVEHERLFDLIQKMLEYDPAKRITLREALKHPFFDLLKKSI

Assays:
Experiment in all cases: co-IP
[1] = biological target: T1, RNA binding motif 20 (RBM20), His-tagged, from plasmid pEGFP-C1-8his-RBM20 WT (rat) (UniProt E9PT37)
T1 sequence: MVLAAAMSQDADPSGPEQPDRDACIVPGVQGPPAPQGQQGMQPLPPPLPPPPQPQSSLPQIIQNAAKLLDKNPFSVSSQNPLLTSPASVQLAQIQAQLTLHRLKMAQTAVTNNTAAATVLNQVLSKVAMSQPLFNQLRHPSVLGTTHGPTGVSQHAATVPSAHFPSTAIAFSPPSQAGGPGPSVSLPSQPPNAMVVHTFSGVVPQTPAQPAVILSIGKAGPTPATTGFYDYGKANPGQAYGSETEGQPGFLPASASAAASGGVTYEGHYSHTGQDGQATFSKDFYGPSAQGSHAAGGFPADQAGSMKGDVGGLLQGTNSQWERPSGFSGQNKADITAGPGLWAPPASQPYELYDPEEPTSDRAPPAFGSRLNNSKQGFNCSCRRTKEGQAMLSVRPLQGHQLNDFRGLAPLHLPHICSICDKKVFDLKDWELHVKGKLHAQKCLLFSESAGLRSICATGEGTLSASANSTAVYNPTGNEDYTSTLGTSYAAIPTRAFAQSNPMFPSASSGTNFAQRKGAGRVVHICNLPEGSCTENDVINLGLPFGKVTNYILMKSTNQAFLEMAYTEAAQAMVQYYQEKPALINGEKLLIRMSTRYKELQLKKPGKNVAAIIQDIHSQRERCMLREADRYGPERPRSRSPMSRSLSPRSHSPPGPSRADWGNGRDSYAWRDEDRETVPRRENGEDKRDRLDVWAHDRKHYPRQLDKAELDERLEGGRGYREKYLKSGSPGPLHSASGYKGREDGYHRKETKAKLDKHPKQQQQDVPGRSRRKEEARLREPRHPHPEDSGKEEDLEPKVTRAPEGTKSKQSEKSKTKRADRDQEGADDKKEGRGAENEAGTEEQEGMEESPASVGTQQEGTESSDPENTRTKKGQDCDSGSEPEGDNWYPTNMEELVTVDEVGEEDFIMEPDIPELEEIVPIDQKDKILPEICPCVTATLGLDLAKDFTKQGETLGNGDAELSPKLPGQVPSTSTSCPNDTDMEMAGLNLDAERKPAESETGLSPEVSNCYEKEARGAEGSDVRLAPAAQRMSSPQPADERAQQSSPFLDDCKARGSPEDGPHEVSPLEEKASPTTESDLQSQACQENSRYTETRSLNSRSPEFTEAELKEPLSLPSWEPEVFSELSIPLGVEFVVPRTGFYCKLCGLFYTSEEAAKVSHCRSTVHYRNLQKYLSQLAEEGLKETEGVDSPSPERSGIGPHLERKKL

[2] = biological target: Myr-HA-Akt2, from plasmid pcDNA3-Myr-HA-Akt2 (UniProt P31751)
[3] = biological target: SR-protein kinase 1 (SRPK1), from plasmid pcDNA3.1-mcherry-SRPK1 (UniProt Q96SB4)
[4] = biological target: cdc2-like kinase 1 (CLK1), from plasmid pcDNA3.1-mcherry-CLK1 (UniProt P49759)

Molecule: cdc2-like kinase 1 (CLK1), from plasmid pcDNA3.1-mcherry-CLK1 (from UniProt P49759 1-484) (enzyme)
- binding [1]: binds

Molecule: SR-protein kinase 1 (SRPK1), from plasmid pcDNA3.1-mcherry-SRPK1 (from UniProt Q96SB4 1-655) (enzyme)
- binding [1]: binds

More lines, now with the values ahead:

- binding [1]: binds
Molecule: Myr-HA-Akt2, from plasmid pcDNA3-Myr-HA-Akt2 (from UniProt P31751 1-481) (enzyme)

- binding [2]: binds
- binding [3]: binds
- binding [4]: binds
B1: RNA binding motif 20 (RBM20), His-tagged, from plasmid pEGFP-C1-8his-RBM20 WT (protein, UniProt E9PT37 1-1207)
chain: T1 sequence
